# Experimental data taken from PubChem BioAssay AID2685 (National Center for Advancing Translational Sciences (NCATS), 2010).
# Among all 320,000 compounds or so, about 2,100 (0.66%) were called active. Inconclusive means that the source gave no clear call. Such entries were picked first, then a sample of the others. Calls follow the shape of the dose curve; as a rule, active = well fitted inhibition curve with a large enough effect in the signal ratio, with a control signal flat (not every such curve was filed as active); inconclusive = small, poorly fitted or top-dose-only effect, or effect the other way, or a change in a side signal; inactive = flat fitted curve, though single readings scatter; the % refers to the signal ratio. A potency beside an inconclusive call is a rough fit, not a confirmed value.
# Assay: qHTS Assay for Lipid Storage Modulators in Drosophila S3 Cells
# Details: BODIPY lipid droplet fluorescence, 18-24 h, cells fed with added oleic acid; lipid storage change, negative = inhibition: at 46.1 µM (top of the series) unless noted
# Method in brief: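 Laser-scanning cytometry quantifies lipid droplet accumulation (500–530 nm total intensity; droplet/cell object ratio) in oleic acid-fed (400 uM added) Drosophila S3 cells treated with a concentration series. 20 uM Triacsin C defined 100% inhibition.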
# % is scaled to controls: 0 for no effect and ±100 for the full control effect; potency is read from the fitted curve at half-maximal effect.
Compound,"lipid storage change, negative = inhibition",Potency
COc1cccc(NC(=O)CCC2CCN(C(=O)c3cccc(NC(C)=O)c3)CC2)c1,inconclusive: -25.8%,
Cc1ccc(NS(=O)(=O)c2ccc(OCC(N)=O)cc2)cc1,inconclusive: 14.8%,
CCOC(=O)C(=O)Nc1nc(-c2ccccc2)c(CC)s1,,"inconclusive: 0.0184 µM [falling, full curve, poor fit]"
Cc1ccc(S(C)(=O)=O)cc1S(=O)(=O)Nc1ccccc1,,"inconclusive: 0.731 µM [activator, partial curve]"
COc1ccc(-c2cc(C(F)(F)F)nc(SCCC(=O)N3CCCC3)n2)cc1,inconclusive: 14.5%,
CCN(CC)S(=O)(=O)c1ccc(N2C(=O)Nc3ccccc3N2O)cc1,inconclusive: 19%,
Clc1ccc(SCc2cn3cccnc3n2)cc1,inconclusive: 13.7%,
CCN(CC)C(=O)CSc1nsc(SCC(=O)N(CC)CC)c1C#N,inconclusive: -29.4%,
CCC(C)Sc1nc(O)cc(=O)[nH]1 (configuration not stated),,"inconclusive: 0.0461 µM [falling, partial curve, poor fit]"
O=C(NNC(=O)C12CC3CC(CC(C3)C1)C2)c1cccc([N+](=O)[O-])c1,inconclusive: -28.7%,
O=C(CCNC(=O)N1CCn2c1nc1ccccc12)NCc1ccccc1Cl,inconclusive: -59%,
O=C(NCc1ccco1)C(c1ccncc1)N(CCC1=CCCCC1)C(=O)Cn1nnc2ccccc21 (configuration not stated),inconclusive: 14.7%,
COc1cc(S(=O)(=O)N2CCN(Cc3cccs3)CC2)ccc1NC(C)=O,inconclusive: 10.2%,
COc1ccccc1NC(=O)c1ccc(Cl)c(S(=O)(=O)NCc2ccco2)c1,,"inconclusive: 0.411 µM [activator, single point]"
CC(=O)c1ccc(NC(=O)c2ccc3c(=O)n4c(nc3c2)CCCCC4)cc1,,"inconclusive: 3.26 µM [cytotoxic, partial curve, poor fit]"
Cc1ccc2c(c1)C(O)(CC(=O)c1ccc(C)s1)C(=O)N2 (configuration not stated),inconclusive: -30.4%,
Cc1onc(C(=O)Nc2ccc(OC(F)(F)F)cc2)c1[N+](=O)[O-],inconclusive: 8.19%,
COc1ccc2c(C)c(CC(=O)N3CCN(C(=O)C4COc5ccccc5O4)CC3)c(=O)oc2c1C (configuration not stated),inconclusive: 26.2%,
CC(C)C(=O)N(Nc1nc2ccccc2s1)C(=O)C(C)C,,"inconclusive: 11.6 µM [falling, partial curve]"
CC(C)Sc1nnc(SCC(=O)NCCCN2CCCC2=O)s1,,"inconclusive: 0.13 µM [activator, full curve, poor fit]"
Cc1cccc(N2CCN(C(=O)Cn3nc(C)n4cccc4c3=O)CC2C)c1 (configuration not stated),,"inconclusive: 29.1 µM [activator, single point]"
COc1ccc(N2CC(O)=C(c3nc4ccccc4s3)C2=N)c(OC)c1,,"inconclusive: 1.3 µM [activator, full curve]"
COc1cc(CC(=O)OCC(=O)NCC(C)C)cc(OC)c1OC,,"inconclusive: 0.0058 µM [activator, full curve, poor fit]"
Cc1c(/C=N\NC(=O)C2COc3ccccc3O2)c2ccccc2n1C (configuration not stated),inconclusive: -15.4%,

# Random excerpt: 2 entries already listed.
Compound,"lipid storage change, negative = inhibition",Potency
Cc1ccc2c(c1)C(O)(CC(=O)c1ccc(C)s1)C(=O)N2 (configuration not stated),inconclusive: -30.4%,
CC(C)Sc1nnc(SCC(=O)NCCCN2CCCC2=O)s1,,"inconclusive: 0.13 µM [activator, full curve, poor fit]"

# Later entries.

Compound,"lipid storage change, negative = inhibition",Potency
Cc1cccc(-c2cnn(-c3cccc([N+](=O)[O-])c3)c2N)c1,inconclusive: 27%,
COC(=O)c1sc2nc(CN3CCOCC3)nc(N3CCOCC3)c2c1C,,"inconclusive: 11.6 µM [activator, partial curve, poor fit]"
COc1ccc(CCc2nc(-c3ccc(-n4cccc4)cc3)no2)cc1,,"inconclusive: 1.46 µM [activator, partial curve]"
CCOc1ccc2nc(NC(NC(=O)CC)(C(=O)OC)C(F)(F)F)sc2c1 (configuration not stated),,"inconclusive: 29.1 µM [falling, partial curve, poor fit]"
O=S(=O)(NCCCCCCNS(=O)(=O)c1c(F)cccc1F)c1ccc2c(c1)OCCO2,inconclusive: 8.57%,
COCCNC(=O)C1CCC(=O)N(c2ccc(OC)cc2)C1c1ccc(OC)c(OC)c1 (configuration not stated),inconclusive: 3.04%,
Nc1nc(Cl)cc(N2CCOCC2)n1,inconclusive: 31.6%,
CCc1nnc(NC(=O)NC(C)(C)C)s1,,"inconclusive: 7.31 µM [rising, partial curve, poor fit]"
O=C(Nc1ccc(Cl)c(Cl)c1)N1CCSC1c1ccco1 (configuration not stated),inconclusive: -3.25%,
O=C(Cn1cc([N+](=O)[O-])cn1)NCc1cc2ccccc2[nH]1,inconclusive: 2.23%,
O=C(O)CSc1nnc(-c2ccccc2O)n1Cc1ccccc1,,active: 25.9 µM
N#Cc1ccc(NC(=O)Cn2cnc(S(=O)(=O)N3CCCCC3)c2)cc1,,"inconclusive: 0.82 µM [falling, full curve, poor fit]"
Cc1csc(NC(=O)CCCC(=O)O)c1-c1nc2ccccc2s1,inconclusive: -17%,
O=C(CN1CCC2(CC1)OCCO2)c1ccc2cc[nH]c2c1,,"inconclusive: 29.1 µM [rising, single point]"
CCC(C)NCCOc1ccc(C)cc1[N+](=O)[O-] (configuration not stated),inconclusive: -4.7%,
Cc1nc2c(C)cccn2c(=O)c1NC(=O)COc1ccccc1,,"inconclusive: 6.51 µM [falling, single point]"
CCOc1ccccc1OCCOCCOc1ccccc1[N+](=O)[O-],,"inconclusive: 8.2 µM [activator, partial curve, poor fit]"
Cc1cccc(OCc2nnc(SCc3nc4ccccc4c(=O)[nH]3)o2)c1,,"inconclusive: 6.51 µM [activator, single point]"
CCOC(=O)C1=C(C)OC(N)=C(C#N)C1c1cccc(C)c1 (configuration not stated),inactive: 17.7%,
CCOC(=O)c1sc(=S)n(CC)c1N,inconclusive: 52.2%,
Cc1ccc(C(=O)OCC(=O)Nc2ccc3[nH]c(=O)[nH]c3c2)cc1S(=O)(=O)N1CCOCC1,inconclusive,
Cc1oc2cc3oc(=O)c(CCC(=O)N4C[C@H]5C[C@@H](C4)c4cccc(=O)n4C5)c(C)c3cc2c1C,inconclusive: -40.8%,
COc1ccccc1NC(=O)N1CCCC1C(=O)NCc1ccc2c(c1)OCO2 (configuration not stated),inconclusive: -8.51%,
